# Test results reported in patent US20250388687A1.
# Protein sequences, listed by entry. Tags and fused reporters are not part of them. Residues count along the entry.
# UniProt P32927, residues 17-443: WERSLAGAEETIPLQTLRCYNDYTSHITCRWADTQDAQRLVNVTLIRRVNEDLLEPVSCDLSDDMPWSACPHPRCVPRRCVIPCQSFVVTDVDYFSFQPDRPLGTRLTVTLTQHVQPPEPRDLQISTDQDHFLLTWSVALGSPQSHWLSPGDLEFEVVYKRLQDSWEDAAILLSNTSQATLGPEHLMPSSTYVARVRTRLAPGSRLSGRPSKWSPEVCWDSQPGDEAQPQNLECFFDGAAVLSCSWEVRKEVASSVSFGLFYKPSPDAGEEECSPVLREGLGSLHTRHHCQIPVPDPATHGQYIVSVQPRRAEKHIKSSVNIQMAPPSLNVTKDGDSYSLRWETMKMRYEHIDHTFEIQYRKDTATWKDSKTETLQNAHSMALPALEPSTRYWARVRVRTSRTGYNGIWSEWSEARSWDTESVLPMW
# No constants are given. Whether binding was seen depends on the method and setting. Some results given as binding are weak or reduced against the parent protein; the word gives no strength. For part of these data: Tags and fused reporters may be left off the sequences shown.
# T1: recombinant hEPOR-Fc (human) (UniProt P19235)
# T1 sequence (looked up): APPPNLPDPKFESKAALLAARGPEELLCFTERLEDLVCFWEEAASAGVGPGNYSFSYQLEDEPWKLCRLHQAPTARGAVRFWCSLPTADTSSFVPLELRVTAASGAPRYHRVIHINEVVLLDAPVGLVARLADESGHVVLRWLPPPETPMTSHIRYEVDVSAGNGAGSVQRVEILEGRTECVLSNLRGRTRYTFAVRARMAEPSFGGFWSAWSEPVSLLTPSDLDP
# B1: clonotype 379 (EPOR/CD131 binders, Table 8) (antibody, V domains shown)
# VH: QVQLVQSGAEVKKPGASMKVSCKASGYTFITYGITWVRQAPGQGLEWMGWISAYNGNANYAQKVQDRVTMTTDTSTSTAYMELRSLRSDDTAVYYCARAPGGSCGSTNCYKWNYDPYYFDYWGQGTLVTVSS
# VL: RSALTQPASVSGSPGQSITISCTGTSSDVGGYNYVSWYHQHPGKAPKLMIYDVSKRPSGVSNRFSGFKSGNTASLTISGLQAEDEADYFCCSYAGSSTLVFGGGTKLTVL
# B2: hybridoma clone M2 (antibody, V domains shown)
# VH: QVQLVESGGGLVKPGGSLRLSCAASGFTFSDSYMSWIRQAPGKGLEWVSYISNSGSYMYYADSVKGRFTISRDNAKNSLYLQMNNLRAEDTAVYYCARDKLGIGDYWGQGTLVTVSS
# VL: DIQMTQSPSSLSASVGDRVTITCRASQGIRNDLGWFQQKPGKAPKRLIYAASRLQSGVPSRFSGSGSGTEFTLTISSLQPEDFATYCCLQHHTYPPTFGQGTKVEIK
# B3: EPOR/CD131 binder, HC SEQ ID NO 1737 / LC SEQ ID NO 1873 (antibody, V domains shown)
# VH: B1 VH
# VL: B1 VL
# B4: anti-EPOR antibody clonotype576 (antibody, V domains shown)
# VH: QVQLQESGPGLVKPSETLSLTCTVSGGSISSYYWSWIRQPPGKGLEWIGHIYYSGSTNYNPSLKSRVTISVDTSKNQFSLKLSSVTAADTAVYYCARDPFYYDFSDYYYMDVWGKGTTVTVSS
# VL: QSALTQPASVSGSPGQSITISCTGTSSDVGAYNYVSWYQQHPGKAPKLMIYAVSKRPSGVSYRFSGSKSGNTASLTISGLQAEDEADYYCCSYAGTISWVFGGGTKLTVL
# Key:
# [1] = target: recombinant hEPOR-Fc (Sino Biological, Cat #10707-H02H) (human) (UniProt P19235); test: B-cell sorting with labelled hEPOR-Fc and hCD131-Fc, double-positive population
# [2] = target: hCD131-Fc (IME021, in house) (human) (UniProt P32927); test: as above
# [3] = target: soluble hetero-EPOR (EPOR-CD131-Fc) (human) (UniProt P19235+P32927); test: BLI (Octet), supernatant antibody captured on anti-mouse Fc biosensors, 30 nM soluble receptor Fc fusion
# [4] = target: T1, recombinant hEPOR-Fc (human); test: B cells sorted with labelled hEPOR-Fc and hCD131-Fc, then sequenced
# [5] = target: hCD131-Fc (IME021) (human) (UniProt P32927); test: as above
# [6] = target: recombinant hEPOR-Fc (Sino Biological, Cat #10707-H02H) (human) (UniProt P19235); test: B cells of immunised ATX-GL mice stained with fluorescent hEPOR-Fc, sorted, single-cell sequenced
binder,measurement,setting,value
B1,binding,[1],binds
same,binding,[2],binds
B2,binding,[3],binds
B3,binding,[4],binds
same,binding,[5],binds
B4,binding,[6],binds
